At least one structure is not confirmed: it was looked up by name or label, or the drawing left a doubt.
Test system: BA cells differentiated from hiPS-derived BAP
Assay: Lipolysis: free glycerol release by BA cells after forskolin stimulation
Assay type: cell-based, human
Conditions: BA obtained after differentiation of BAP derived at day 12 and 16; FIG. 13.D
Protocol: Lipolysis: The BAP were differentiated for 17 days. Then the cells were maintained for 24 hours in DMEM 1g/Iglucose supplemented with BSA 0,2%. Lipolysis was stimulated with forskolin (10 μM) for 24 hours.

## C=C[C@@]1(C)CC(=O)[C@]2(O)[C@@]3(C)[C@@H](O)CCC(C)(C)[C@@H]3[C@H](O)[C@H](OC(C)=O)[C@@]2(C)O1 [forskolin]
  lipolysis after stimulation with forskolin: increase of the lipolysis

From US20200362309A1, “Method for preparing BAP or BA cells” (Anagenesis Biotechnologies S.A.S., priority 2017, published 2020)
